From patent publication US7250258B2 (priority 2003, dated 2007)
For at least one compound, name, drawing or mass did not settle the structure.

Columns and labels:
[1] = system: Caucasian patients diagnosed with Alzheimer's Disease; experiment: Clinical association of CDK5 haplotype copy number with galantamine response (ΔADAS-cog responder vs non-responder, logistic regression); assay type: in vivo, human; conditions: patients with zero copies of haplotype (1) vs one copy (one copy better than two)
Procedure: Following 3, 5, 6 or 12 months of treatment in the GAL-INT2, GAL-USA 10, GAL-INT-1 and SAB-USA-25 trials, respectively, the severity of symptoms in patients were evaluated using the cognitive subscale of the Alzheimer's Disease Assessment Scale (ADAS-cog) (Rosen et al., supra; Rockwood et al., supra; Tariot et al., supra; Wilcock et al., supra). The ADAS-cog measures cognitive function, including spoken language ability, comprehension of spoken language, recall of test instructions, word-finding difficulty in spontaneous speech, following commands, naming objects and fingers, constructional praxis, ideational praxis, orientation, word-recall task and word-recognition task (Alzheimer's Insights Online, supra).
For the clinical association study described in Example 2 below, 174 patients were selected and used to populate two groups in a tailed sampling strategy, intended to enrich alleles correlating with drug response in the population. […] Patients were assigned to responder and non-responder groups based on having a change in ADAS-cog score (ΔADAS-cog) that met a cut-off value that was chosen based on the differences in treatment times in the four clinical trials described above. The ΔADAS-cog cut-off values and treatment times used for each responder and non-responder group from each of the four clinical trials are shown in Table 6 below. […]

AD patients [2] = conditions: clinical trials; cited from earlier work
AD patients [3] = conditions: patients with zero, one or two copies of the ApoE4 allele; cited from earlier work

For `COc1ccc2c3c1O[C@H]1C[C@@H](O)C=C[C@@]31CCN(C)C2` [galantamine], the “response to galantamine by copy number of haplotype (1)” value [1] is given as “better response to galantamine than the patient group having one copy”, the “cognitive function and activities of daily living compared to placebo” value (AD patients [2]) is given as “significant improvement” and the “efficacy of response by ApoE4 allele” value (AD patients [3]) is given as “no significant difference in efficacy of response”.
